Assay results as given in the supplement of paper PMC10849652.
Some of the results follow.

Amino acid sequences for entries named in this document (tags omitted). A change or cut given only in a name is not applied to a line headed by its entry.
UniProt Q9UH62: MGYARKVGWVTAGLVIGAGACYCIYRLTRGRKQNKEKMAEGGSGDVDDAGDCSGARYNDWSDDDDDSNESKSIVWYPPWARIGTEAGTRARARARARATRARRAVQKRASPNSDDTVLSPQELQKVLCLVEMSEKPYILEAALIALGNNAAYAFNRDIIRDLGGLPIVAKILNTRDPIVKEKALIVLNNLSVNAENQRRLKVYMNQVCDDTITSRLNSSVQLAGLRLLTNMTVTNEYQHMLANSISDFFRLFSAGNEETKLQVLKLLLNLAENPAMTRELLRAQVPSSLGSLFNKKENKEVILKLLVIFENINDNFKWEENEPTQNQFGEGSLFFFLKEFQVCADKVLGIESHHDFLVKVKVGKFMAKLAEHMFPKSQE
UniProt P27449, whole entry, looked up: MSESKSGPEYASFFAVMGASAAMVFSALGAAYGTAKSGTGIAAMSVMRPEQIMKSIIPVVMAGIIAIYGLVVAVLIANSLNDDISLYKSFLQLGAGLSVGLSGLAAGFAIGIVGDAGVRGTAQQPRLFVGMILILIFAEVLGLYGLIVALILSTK
UniProt Q8NBU5: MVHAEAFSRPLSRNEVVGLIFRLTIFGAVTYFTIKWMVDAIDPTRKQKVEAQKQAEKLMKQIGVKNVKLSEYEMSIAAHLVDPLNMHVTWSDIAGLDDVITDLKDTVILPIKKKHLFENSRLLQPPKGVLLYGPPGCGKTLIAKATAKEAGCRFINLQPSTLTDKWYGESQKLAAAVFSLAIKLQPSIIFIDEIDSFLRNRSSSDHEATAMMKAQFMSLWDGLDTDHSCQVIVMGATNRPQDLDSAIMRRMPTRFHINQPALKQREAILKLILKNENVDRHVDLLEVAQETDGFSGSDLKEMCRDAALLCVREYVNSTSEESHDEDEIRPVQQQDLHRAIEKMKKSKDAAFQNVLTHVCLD
UniProt P49407: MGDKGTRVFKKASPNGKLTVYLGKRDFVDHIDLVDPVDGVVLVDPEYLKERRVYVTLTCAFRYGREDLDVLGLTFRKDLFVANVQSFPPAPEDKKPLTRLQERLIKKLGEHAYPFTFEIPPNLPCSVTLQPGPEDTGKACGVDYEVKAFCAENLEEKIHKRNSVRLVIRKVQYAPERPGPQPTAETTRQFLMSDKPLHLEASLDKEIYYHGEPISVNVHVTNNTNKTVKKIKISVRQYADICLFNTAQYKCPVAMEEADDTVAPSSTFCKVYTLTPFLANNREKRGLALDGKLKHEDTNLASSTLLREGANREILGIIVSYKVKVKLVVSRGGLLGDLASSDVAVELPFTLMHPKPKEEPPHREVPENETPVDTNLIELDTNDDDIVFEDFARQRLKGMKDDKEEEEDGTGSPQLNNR
UniProt Q2TAZ0: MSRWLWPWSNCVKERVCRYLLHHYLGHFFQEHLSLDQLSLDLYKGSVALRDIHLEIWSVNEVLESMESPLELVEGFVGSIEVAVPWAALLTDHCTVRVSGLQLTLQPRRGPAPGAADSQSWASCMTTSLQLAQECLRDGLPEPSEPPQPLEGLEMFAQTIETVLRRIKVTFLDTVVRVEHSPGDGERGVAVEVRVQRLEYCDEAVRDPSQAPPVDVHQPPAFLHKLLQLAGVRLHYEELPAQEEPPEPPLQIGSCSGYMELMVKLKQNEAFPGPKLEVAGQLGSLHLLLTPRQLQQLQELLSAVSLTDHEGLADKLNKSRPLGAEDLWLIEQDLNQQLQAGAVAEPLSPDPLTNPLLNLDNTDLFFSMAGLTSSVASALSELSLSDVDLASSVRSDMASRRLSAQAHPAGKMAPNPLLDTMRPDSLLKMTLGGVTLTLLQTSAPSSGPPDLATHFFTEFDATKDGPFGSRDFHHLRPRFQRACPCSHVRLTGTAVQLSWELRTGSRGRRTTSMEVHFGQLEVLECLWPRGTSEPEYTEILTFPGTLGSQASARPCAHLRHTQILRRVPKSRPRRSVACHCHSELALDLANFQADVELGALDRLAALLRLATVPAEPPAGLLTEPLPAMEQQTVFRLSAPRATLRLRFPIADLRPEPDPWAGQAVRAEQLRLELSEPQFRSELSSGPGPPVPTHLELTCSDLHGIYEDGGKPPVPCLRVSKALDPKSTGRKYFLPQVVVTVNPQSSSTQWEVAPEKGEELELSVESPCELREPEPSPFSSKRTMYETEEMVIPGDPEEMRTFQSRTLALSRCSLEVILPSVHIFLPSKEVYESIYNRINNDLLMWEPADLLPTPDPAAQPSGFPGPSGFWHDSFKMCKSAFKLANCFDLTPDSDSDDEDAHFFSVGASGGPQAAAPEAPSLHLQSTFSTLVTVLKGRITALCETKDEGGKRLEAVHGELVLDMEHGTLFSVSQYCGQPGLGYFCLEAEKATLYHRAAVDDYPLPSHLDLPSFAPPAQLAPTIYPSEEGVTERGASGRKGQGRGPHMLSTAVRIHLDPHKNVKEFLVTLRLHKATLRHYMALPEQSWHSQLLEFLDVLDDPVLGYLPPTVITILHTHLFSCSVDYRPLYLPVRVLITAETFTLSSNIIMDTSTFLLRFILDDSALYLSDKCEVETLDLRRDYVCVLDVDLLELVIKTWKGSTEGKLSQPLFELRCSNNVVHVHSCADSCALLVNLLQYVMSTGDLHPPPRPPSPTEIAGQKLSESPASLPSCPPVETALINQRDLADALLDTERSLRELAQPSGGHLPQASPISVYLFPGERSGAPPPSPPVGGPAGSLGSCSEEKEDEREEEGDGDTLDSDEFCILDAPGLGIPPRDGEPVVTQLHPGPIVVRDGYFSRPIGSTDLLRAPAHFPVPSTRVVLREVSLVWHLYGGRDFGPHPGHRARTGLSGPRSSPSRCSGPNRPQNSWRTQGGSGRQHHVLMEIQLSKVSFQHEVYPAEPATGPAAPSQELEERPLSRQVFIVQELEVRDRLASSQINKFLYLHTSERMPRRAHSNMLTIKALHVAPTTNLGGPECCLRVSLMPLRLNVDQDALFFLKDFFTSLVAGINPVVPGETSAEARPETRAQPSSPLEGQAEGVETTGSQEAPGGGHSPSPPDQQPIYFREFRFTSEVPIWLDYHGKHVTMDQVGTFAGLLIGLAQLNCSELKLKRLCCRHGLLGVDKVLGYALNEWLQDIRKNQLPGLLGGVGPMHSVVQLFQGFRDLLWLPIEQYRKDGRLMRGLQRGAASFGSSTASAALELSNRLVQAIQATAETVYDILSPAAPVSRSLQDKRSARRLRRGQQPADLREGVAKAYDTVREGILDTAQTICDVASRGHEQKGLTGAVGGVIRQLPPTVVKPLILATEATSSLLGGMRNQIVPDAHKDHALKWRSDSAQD
UniProt Q8NHH9: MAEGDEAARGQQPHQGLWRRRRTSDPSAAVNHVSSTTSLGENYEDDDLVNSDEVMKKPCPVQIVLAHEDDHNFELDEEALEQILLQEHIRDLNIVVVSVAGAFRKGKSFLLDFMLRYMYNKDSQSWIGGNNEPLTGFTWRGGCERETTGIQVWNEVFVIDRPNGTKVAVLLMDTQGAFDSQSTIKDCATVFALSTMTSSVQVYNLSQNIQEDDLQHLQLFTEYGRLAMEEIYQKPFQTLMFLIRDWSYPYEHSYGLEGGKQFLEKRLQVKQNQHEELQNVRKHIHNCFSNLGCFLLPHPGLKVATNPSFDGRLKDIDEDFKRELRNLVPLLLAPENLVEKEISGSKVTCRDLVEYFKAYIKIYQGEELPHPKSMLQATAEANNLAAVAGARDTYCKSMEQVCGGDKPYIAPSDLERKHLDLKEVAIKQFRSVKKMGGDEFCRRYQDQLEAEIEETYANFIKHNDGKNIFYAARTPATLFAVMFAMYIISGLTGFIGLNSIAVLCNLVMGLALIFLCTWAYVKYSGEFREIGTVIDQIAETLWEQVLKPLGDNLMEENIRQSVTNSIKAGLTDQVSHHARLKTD
UniProt P98198: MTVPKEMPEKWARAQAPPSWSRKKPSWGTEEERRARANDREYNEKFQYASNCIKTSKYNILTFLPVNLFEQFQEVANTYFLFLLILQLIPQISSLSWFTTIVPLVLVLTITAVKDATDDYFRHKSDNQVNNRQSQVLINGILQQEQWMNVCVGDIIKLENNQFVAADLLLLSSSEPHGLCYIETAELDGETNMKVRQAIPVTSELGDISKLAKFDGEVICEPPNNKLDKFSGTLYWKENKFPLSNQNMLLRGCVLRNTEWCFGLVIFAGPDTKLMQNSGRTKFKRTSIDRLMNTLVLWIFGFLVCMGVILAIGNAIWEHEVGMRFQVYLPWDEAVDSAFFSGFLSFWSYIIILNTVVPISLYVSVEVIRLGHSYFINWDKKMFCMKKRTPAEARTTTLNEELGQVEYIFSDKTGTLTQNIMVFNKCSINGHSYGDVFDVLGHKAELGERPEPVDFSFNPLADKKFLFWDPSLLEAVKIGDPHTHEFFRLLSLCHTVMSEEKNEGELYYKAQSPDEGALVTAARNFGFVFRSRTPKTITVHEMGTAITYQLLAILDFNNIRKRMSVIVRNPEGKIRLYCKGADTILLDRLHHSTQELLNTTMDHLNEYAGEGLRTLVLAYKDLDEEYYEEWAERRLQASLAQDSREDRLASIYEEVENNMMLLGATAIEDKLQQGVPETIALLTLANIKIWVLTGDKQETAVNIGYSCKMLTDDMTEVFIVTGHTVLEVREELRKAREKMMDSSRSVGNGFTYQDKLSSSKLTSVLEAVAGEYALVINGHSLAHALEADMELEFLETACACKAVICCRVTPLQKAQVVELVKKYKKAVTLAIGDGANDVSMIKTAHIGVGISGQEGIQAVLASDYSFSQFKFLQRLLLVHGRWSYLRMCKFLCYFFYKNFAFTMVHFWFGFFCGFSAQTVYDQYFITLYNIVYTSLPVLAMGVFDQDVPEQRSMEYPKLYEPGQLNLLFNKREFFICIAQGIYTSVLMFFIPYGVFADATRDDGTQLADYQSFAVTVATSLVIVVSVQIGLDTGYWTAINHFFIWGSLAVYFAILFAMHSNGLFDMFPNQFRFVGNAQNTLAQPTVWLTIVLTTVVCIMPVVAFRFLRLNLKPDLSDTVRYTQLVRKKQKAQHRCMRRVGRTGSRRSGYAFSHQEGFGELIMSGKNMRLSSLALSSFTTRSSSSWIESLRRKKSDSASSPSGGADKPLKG
UniProt O94817, whole entry, looked up: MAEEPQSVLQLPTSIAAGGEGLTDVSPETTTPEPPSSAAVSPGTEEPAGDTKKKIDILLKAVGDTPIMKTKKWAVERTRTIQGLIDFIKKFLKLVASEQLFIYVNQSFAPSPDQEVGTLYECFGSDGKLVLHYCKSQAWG
UniProt Q01814: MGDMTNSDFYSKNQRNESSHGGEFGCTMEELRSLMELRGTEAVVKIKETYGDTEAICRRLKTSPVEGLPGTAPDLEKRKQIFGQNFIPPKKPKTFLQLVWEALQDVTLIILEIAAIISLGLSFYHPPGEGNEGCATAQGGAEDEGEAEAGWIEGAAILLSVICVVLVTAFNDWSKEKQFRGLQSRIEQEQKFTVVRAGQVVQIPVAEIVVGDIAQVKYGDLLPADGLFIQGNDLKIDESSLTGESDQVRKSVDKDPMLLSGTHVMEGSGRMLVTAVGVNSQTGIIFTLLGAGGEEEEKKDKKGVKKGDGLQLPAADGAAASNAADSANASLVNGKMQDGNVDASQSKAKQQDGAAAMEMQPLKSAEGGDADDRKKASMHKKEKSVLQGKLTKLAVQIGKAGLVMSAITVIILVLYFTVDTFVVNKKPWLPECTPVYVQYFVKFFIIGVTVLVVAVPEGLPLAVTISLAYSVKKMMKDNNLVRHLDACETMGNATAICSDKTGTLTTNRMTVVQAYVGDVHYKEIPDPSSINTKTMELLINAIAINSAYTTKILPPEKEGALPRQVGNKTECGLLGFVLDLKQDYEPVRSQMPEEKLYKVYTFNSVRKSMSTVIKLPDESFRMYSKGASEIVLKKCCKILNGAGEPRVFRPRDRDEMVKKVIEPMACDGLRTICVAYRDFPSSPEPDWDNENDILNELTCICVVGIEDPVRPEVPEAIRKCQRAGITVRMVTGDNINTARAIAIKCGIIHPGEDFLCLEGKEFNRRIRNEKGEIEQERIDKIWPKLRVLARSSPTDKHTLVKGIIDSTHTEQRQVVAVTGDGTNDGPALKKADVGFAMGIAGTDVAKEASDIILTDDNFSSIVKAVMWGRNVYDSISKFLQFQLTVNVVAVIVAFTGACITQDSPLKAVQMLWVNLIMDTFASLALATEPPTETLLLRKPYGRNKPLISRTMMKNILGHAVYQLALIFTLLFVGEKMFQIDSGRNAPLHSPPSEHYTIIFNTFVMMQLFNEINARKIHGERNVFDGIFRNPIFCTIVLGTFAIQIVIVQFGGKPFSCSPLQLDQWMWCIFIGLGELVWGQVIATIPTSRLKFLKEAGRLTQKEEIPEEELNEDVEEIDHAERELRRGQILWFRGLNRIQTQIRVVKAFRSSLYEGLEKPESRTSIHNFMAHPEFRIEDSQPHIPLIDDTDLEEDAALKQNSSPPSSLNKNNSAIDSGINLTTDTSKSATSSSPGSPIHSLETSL
UniProt P56211: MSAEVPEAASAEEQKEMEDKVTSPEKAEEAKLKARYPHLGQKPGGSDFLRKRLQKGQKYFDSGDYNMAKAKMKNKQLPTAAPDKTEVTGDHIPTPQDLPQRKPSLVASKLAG

Assays:
Assay in all cases: log2 fold change, soluble protein after heating vs DMSO (PISA); higher = thermal stabilisation; K562 cells, 10 uM, 30 min; active = over 0.2 and 3.5 SD of the protein, either way, in both replicates (recomputed)
[1] = compound: C1=CC(=C(C=C1Cl)C2=NC3=NC=CN=C3C(=N2)NC4=CC=NC=C4)F
Method in brief: (§1)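 Soluble protein was defined as the supernatant after 21,000xg for 90 min. It came from K562 cells at 2×10^6 cells/mL given 10 μM compound for 30 min, heated in aliquots for 3 min across 48°C-58°C, pooled, and extracted in PBS with 0.5% NP-40 at 4°C, and was quantified by TMTpro 16plex LC-MS/MS with equalised channel sums. Thermal stability against control samples, from duplicates, is reported as log2 fold change.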

[2] = compound: C1=CC2=NC=CN=C2C=C1/C=C/3\C(=O)NC(=O)S3
Method in brief: as §1

erlotinib = compound: C#Cc1cccc(Nc2ncnc3cc(OCCOC)c(OCCOC)cc23)c1 [erlotinib]
Method in brief: as §1

[3] = compound: C/C(=N\NC(=O)C1=CC(=CC=C1)S(=O)(=O)N2CCOCC2)/C3=C(C=CC(=C3)Cl)O
Method in brief: as §1

[4] = compound: C1=CC(=CC=C1C2=NC3=C(N2)C=C(C=C3)C(=O)N)OC4=CC=C(C=C4)Cl
Method in brief: as §1

[5] = compound: C1=CC2=C(C=CC(=C2)/C=C\3/C(=O)NC(=NCC4=CC=CS4)S3)N=C1
Method in brief: as §1

[6] = compound: C1=CC=C2C(=C1)C3=NNC4=CC=CC(=C43)C2=O
Method in brief: as §1

[7] = compound: C1=CC=C(C=C1)C2=NC(=C(N2)C3=CC=NC=C3)C4=CC(=C(C=C4)Cl)O
Method in brief: as §1

[8] = compound: C1CCN(C1)C(=O)NC2=CC=CC(=C2)NC3=NC=C(C(=N3)NCCC4=CN=CN4)Br
Method in brief: as §1

[9] = compound: C1CN(CCC1(CC2=CC=C(C=C2)Cl)N)C3=NC=NC4=C3C=CN4
Method in brief: as §1

Measured: log2 fold change

ASNSD1 (UniProt Q9NWL6)
inactive: [1] 0.162 | [2] -0.001

ASXL2 (UniProt Q76L83)
inactive: erlotinib 0.042 | [3] -0.016 | [4] 0.167 | [5] 0.024 | [6] -0.059

ATP23 (UniProt Q9Y6H3)
inactive: erlotinib 0.021 | [3] -0.079 | [1] -0.017 | [4] 0.033 | [5] 0.051 | [2] 0.027 | [7] 0.009 | [6] 0.033 | [8] 0.007 | [9] -0.014

ATG10 (UniProt Q9H0Y0)
inactive: erlotinib -0.037 | [1] 0.018 | [4] 0.095 | [2] 0.078 | [8] 0.174 | [9] -0.602

ATF7IP isoform 4 (UniProt Q6VMQ6)
inactive: erlotinib -0.004 | [3] 0.111 | [1] 0.012 | [4] 0.06 | [5] 0.059 | [2] 0.073 | [6] 0.023 | [8] 0.183 | [9] 0.127

ARL6 isoform 2 (UniProt Q9H0F7)
inactive: [7] 0.049

ARMC8 isoform 6 (UniProt Q8IUR7)
inactive: erlotinib -0.145 | [3] 0.081 | [4] -0.168 | [5] -0.075 | [2] 0.078 | [6] -0.067

ATF6 (UniProt P18850)
inactive: [7] -0.338

Quoted at random: three entries already listed
ARL6 isoform 2 (UniProt Q9H0F7)
inactive: [7] 0.049

ARMC8 isoform 6 (UniProt Q8IUR7)
inactive: erlotinib -0.145 | [3] 0.081 | [4] -0.168 | [5] -0.075 | [2] 0.078 | [6] -0.067

ASXL2 (UniProt Q76L83)
inactive: erlotinib 0.042 | [3] -0.016 | [4] 0.167 | [5] 0.024 | [6] -0.059

Next part.

ATP6V0A1 (UniProt Q93050)
inactive: [2] 0.187

ATPSCKMT (UniProt Q6P4H8)
inactive: erlotinib 0.052 | [3] 0.179 | [1] 0.062 | [4] -0.007 | [5] -0.037 | [2] 0.026 | [6] 0.012 | [8] -0.072 | [9] 0.038

ATP5F1B (UniProt F8W0P7)
inactive: [3] 0.185 | [1] 0.335 | [5] 0.173 | [2] -0.155 | [7] -0.146 | [6] 0.096 | [8] 0.053 | [9] 0.073

ARSK (UniProt Q6UWY0)
inactive: erlotinib 0.26 | [1] 0.13 | [4] 0.208 | [2] -0.086

ATG14 (UniProt Q6ZNE5)
inactive: erlotinib -0.037 | [3] -0.042 | [4] 0.158 | [5] -0.277 | [2] 0.216 | [6] 0.21

ARL5A (UniProt Q9Y689)
inactive: erlotinib -0.052 | [3] -0.036 | [1] -0.007 | [4] -0.068 | [5] 0.039 | [2] -0.034 | [7] 0.106 | [6] 0 | [8] -0.043 | [9] 0.018

ATG4C (UniProt Q96DT6)
inactive: erlotinib -0.065 | [1] 0.009 | [4] -0.003 | [2] 0.118 | [7] -0.004 | [8] 0.013 | [9] 0.143

ARMCX3 (UniProt Q9UH62)
inactive: erlotinib 0.055 | [3] 0.027 | [1] -0.006 | [4] 0.04 | [5] -0.031 | [2] -0.074 | [7] -0.061 | [6] 0.021 | [8] -0.069 | [9] -0.299

ATP6V0C (UniProt P27449)
inactive: erlotinib -0.27 | [3] -0.139 | [1] -0.253 | [4] 0.273 | [5] -0.123 | [2] 0.02 | [6] 0.107 | [8] -0.4 | [9] 0.154

ATAD1 (UniProt Q8NBU5)
inactive: erlotinib 0.037 | [3] 0.036 | [4] 0.021 | [5] 0.054 | [2] -0.022 | [7] 0.059 | [6] 0.123 | [8] 0 | [9] -0.006
active: [1] 0.295

ATE1 (UniProt O95260)
inactive: [3] -0.229 | [1] 0.05 | [5] 0.227 | [6] 0.129 | [8] 0.027 | [9] 0.029

ATP1B1 (UniProt P05026)
inactive: erlotinib 0.033 | [3] 0.054 | [4] -0.043 | [5] -0.063 | [2] 0.08 | [7] 0.065 | [6] -0.049 | [8] -0.121 | [9] 0.01

ATP5F1B (UniProt H0YI37)
inactive: [1] -0.312 | [2] -0.187

ARRB1 isoform 2 (UniProt P49407)
inactive: erlotinib 0.009 | [3] 0.066 | [4] 0.061 | [5] 0.046 | [2] 0.12 | [7] 0.029 | [6] -0.14 | [8] 0.058 | [9] 0.087

ATG2A (UniProt Q2TAZ0)
inactive: [1] 0.258

ARPC5 (UniProt O15511)
inactive: erlotinib 0 | [3] -0.003 | [1] 0.015 | [4] -0.008 | [5] -0.017 | [2] 0.022 | [7] 0.003 | [6] -0.016 | [8] -0.014 | [9] -0.012

ATL2 (UniProt Q8NHH9)
inactive: erlotinib -0.004 | [3] 0 | [1] 0.081 | [4] 0.004 | [5] 0.049 | [2] 0.012 | [7] 0.049 | [6] 0.014 | [8] 0.077 | [9] 0

ATP8B2 isoform 3 (UniProt P98198)
inactive: [3] -0.349 | [5] -0.176 | [6] 0.116

ATP2C1 isoform 3 (UniProt P98194)
inactive: erlotinib -0.126 | [3] 0.25 | [4] -0.028 | [5] -0.118 | [2] 0.048 | [6] -0.223

ARL4A (UniProt P40617)
inactive: [3] 0.009 | [5] 0.35 | [2] -0.053 | [6] 0.047

ASCC3 (UniProt Q8N3C0)
inactive: erlotinib 0.093 | [3] 0.006 | [1] -0.419 | [4] -0.037 | [5] 0.147 | [2] -0.228 | [7] -0.051 | [6] -0.003 | [8] 0.067 | [9] -0.212

ARL5B (UniProt Q96KC2)
inactive: erlotinib 0.037 | [3] 0.032 | [1] 0.024 | [4] -0.012 | [5] 0.138 | [2] 0.005 | [6] 0.036 | [8] 0.065 | [9] -0.034

ASCC2 (UniProt Q9H1I8)
inactive: erlotinib -0.033 | [1] -0.05 | [4] 0.021 | [7] -0.01

ATG12 (UniProt O94817)
inactive: erlotinib -0.032 | [3] 0.067 | [1] 0.07 | [4] 0.048 | [5] 0.056 | [2] 0.077 | [6] 0.007 | [8] -0.075 | [9] 0.004

ARRDC1 (UniProt Q8N5I2)
inactive: erlotinib -0.079 | [1] -0.075 | [4] 0.038 | [2] -0.05 | [7] 0.042 | [8] -0.03 | [9] -0.066

ASXL1 (UniProt Q8IXJ9)
inactive: erlotinib -0.156 | [1] -0.237 | [4] 0.089 | [2] 0.032 | [8] 0.034 | [9] 0.035

ATP2B2 (UniProt Q01814)
inactive: erlotinib -0.05 | [3] 0.123 | [4] 0.038 | [5] -0.063 | [6] 0.142

ARPP19 (UniProt P56211)
inactive: erlotinib -0.01 | [3] 0.003 | [1] 0.076 | [4] -0.032 | [5] -0.061 | [2] 0.041 | [7] 0.026 | [6] 0.014 | [8] -0.024 | [9] -0.018

ATP7B (UniProt P35670)
inactive: erlotinib -0.005 | [3] 0.073 | [1] -0.037 | [4] 0.051 | [5] 0.119 | [2] 0.01 | [7] 0.077 | [6] -0.009 | [8] -0.075 | [9] -0.052
